Experimental findings from the supplement of paper PMC12595434, “Development of retinoid nuclear receptor pathway antagonists through targeting aldehyde dehydrogenase 1A3” (iScience, 2025) are described below.

Chains of the proteins cited; added tags and fusions are not shown. Lines headed by an entry give the natural chain unless they say otherwise; changes in a name come on top.
UniProt Q7Z417: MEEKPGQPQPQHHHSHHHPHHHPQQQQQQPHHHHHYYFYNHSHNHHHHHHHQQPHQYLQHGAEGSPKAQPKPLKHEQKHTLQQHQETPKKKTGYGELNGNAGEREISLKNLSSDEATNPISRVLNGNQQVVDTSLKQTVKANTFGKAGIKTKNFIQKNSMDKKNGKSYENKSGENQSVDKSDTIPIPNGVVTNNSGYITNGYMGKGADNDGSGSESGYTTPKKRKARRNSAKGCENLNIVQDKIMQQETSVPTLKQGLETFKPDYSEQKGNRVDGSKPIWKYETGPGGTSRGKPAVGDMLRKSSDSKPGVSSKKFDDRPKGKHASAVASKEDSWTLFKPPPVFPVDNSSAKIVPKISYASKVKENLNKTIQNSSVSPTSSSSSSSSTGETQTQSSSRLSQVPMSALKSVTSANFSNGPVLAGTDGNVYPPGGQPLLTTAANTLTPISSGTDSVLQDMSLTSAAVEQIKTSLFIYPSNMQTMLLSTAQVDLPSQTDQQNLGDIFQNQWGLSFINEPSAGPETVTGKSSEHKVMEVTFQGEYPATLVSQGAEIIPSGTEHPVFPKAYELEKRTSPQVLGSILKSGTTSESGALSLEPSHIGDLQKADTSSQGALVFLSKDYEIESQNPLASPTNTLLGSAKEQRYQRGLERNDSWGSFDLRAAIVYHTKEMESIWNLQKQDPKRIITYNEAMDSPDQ
UniProt Q7Z7A3: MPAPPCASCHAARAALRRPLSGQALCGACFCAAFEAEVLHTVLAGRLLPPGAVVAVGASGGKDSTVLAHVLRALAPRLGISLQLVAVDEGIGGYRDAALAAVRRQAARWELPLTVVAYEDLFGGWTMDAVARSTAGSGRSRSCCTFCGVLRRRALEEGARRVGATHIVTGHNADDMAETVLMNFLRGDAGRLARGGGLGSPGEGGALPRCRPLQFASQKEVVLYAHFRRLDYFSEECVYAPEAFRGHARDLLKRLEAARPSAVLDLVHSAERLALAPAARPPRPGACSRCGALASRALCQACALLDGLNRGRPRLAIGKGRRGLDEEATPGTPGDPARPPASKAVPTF
UniProt Q6ZW31: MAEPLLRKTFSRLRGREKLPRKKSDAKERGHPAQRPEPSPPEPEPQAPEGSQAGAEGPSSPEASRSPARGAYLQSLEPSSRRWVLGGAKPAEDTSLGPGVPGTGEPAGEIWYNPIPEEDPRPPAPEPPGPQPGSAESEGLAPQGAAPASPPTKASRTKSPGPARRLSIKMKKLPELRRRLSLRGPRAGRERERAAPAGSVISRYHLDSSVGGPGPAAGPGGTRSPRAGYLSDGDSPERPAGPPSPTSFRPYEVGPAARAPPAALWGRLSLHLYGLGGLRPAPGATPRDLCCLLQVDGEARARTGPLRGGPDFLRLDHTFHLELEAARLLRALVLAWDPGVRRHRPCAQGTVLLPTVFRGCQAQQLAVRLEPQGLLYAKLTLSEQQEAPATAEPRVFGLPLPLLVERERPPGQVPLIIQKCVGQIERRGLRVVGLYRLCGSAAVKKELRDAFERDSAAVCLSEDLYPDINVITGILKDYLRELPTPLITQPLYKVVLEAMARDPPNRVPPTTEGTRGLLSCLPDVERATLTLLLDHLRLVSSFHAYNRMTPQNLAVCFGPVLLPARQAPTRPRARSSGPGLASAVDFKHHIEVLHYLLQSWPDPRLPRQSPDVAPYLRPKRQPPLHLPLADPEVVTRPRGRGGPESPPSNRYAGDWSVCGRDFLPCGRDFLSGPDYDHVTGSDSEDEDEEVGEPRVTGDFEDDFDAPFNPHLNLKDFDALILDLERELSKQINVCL
UniProt Q7Z7A1: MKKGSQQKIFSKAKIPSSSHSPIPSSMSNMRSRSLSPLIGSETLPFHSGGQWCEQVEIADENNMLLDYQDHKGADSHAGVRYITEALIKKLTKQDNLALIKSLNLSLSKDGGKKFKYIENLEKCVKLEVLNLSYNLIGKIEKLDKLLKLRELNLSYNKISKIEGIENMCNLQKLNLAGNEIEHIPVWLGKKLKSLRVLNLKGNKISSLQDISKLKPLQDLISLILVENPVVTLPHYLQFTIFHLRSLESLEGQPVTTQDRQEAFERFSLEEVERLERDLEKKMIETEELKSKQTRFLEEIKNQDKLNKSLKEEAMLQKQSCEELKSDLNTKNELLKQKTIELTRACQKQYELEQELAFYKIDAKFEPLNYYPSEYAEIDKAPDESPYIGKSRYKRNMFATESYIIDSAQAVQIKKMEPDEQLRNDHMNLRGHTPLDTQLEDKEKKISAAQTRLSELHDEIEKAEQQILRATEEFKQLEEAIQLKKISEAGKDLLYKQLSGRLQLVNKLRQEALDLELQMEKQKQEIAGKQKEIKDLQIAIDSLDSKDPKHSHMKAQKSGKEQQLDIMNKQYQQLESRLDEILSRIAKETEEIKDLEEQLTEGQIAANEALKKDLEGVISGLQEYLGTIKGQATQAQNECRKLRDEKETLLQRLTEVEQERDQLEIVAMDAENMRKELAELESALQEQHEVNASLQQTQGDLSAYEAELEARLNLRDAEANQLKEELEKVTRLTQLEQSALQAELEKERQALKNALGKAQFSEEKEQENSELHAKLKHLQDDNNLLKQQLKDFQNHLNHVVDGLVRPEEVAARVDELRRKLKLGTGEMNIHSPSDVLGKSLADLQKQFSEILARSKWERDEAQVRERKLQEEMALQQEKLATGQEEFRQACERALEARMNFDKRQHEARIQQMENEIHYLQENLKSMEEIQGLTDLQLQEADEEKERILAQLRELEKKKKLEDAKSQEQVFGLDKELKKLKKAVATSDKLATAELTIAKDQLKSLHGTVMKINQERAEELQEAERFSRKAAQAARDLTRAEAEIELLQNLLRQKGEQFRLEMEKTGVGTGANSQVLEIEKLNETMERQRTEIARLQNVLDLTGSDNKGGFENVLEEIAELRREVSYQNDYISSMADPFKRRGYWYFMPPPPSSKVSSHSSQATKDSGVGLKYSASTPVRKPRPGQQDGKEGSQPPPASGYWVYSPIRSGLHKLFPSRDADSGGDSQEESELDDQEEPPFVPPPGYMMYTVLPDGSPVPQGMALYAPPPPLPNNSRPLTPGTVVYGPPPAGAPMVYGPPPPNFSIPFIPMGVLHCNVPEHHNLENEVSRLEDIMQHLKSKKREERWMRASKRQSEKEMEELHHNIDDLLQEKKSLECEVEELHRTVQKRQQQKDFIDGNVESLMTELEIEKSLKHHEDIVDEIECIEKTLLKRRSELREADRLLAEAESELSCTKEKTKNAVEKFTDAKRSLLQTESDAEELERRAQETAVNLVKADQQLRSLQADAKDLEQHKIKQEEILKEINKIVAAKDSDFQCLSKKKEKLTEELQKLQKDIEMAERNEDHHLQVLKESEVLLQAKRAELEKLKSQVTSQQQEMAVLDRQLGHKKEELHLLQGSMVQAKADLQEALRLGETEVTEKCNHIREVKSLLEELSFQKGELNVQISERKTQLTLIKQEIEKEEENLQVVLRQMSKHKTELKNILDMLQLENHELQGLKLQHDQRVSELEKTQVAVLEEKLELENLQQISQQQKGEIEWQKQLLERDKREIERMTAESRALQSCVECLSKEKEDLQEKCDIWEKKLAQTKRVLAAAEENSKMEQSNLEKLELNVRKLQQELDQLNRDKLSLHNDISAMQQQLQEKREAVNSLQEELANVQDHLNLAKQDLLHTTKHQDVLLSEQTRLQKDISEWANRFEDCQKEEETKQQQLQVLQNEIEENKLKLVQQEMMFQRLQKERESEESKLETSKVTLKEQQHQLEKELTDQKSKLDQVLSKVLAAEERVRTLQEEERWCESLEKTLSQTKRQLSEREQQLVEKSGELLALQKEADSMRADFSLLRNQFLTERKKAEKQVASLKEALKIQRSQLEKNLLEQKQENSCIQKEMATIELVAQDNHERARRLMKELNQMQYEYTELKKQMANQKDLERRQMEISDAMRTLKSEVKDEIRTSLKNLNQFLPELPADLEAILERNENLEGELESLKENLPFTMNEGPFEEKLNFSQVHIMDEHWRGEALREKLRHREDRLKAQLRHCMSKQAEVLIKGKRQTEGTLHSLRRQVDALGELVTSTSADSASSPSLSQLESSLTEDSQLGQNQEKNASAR
UniProt Q7L1Q6: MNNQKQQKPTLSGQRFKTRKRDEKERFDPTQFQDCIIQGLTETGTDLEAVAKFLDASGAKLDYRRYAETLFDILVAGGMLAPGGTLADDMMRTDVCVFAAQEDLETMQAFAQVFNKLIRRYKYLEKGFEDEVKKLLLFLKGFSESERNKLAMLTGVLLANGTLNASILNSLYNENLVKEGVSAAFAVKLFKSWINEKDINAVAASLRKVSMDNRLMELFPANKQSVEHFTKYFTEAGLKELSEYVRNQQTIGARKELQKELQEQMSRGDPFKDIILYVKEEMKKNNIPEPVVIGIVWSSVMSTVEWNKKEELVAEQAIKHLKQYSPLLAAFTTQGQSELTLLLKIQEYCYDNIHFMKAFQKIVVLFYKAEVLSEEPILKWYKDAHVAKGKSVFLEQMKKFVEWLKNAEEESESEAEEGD
UniProt Q7Z6J0, whole entry: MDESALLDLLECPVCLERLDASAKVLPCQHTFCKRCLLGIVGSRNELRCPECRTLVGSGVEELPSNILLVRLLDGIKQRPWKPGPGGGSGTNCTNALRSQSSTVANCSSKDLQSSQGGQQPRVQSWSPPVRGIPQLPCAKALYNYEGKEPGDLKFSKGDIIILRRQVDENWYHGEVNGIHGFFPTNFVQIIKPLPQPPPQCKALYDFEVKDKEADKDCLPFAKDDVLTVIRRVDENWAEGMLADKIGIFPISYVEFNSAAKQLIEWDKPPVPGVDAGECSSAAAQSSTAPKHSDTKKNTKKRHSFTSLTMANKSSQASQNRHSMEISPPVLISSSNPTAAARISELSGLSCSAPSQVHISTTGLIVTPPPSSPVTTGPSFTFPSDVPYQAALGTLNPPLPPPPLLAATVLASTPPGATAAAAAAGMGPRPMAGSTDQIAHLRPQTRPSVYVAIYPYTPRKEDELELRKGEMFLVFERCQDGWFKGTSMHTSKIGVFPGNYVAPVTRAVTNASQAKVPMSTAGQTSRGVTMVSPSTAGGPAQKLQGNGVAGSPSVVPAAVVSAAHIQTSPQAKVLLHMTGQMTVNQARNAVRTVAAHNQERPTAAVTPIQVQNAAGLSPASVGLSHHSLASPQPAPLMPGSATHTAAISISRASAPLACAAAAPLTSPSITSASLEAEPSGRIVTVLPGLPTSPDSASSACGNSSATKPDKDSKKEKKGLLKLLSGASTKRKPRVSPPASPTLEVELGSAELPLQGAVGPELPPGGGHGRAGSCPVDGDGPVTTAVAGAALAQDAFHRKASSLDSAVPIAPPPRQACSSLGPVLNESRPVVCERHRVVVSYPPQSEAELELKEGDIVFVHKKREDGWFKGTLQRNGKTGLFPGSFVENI
UniProt Q6PK18: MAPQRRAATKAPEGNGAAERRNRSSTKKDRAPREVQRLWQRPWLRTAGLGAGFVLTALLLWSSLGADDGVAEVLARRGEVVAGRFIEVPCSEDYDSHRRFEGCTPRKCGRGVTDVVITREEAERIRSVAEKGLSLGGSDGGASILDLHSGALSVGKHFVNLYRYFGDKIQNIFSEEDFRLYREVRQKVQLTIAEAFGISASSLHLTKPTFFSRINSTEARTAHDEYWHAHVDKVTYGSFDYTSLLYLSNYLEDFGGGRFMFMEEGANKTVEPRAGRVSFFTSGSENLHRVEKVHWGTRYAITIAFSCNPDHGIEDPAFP
UniProt Q86T24: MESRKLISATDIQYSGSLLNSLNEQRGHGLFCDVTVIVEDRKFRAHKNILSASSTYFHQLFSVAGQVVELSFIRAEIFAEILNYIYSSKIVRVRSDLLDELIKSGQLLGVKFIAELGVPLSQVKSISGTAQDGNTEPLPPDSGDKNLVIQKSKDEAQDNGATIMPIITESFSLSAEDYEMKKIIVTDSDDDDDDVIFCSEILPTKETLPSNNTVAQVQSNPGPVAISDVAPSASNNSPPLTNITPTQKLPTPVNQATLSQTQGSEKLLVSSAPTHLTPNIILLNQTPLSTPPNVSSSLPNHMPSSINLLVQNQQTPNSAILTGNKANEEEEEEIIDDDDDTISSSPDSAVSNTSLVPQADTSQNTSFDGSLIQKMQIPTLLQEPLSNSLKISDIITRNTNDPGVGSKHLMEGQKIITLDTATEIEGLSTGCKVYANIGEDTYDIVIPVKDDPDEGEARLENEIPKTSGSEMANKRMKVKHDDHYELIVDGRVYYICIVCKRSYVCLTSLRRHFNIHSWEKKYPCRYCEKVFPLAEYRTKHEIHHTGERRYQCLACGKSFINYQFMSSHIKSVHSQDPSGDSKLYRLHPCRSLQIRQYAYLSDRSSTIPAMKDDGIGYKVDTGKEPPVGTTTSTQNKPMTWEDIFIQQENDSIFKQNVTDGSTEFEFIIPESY
UniProt Q86U28: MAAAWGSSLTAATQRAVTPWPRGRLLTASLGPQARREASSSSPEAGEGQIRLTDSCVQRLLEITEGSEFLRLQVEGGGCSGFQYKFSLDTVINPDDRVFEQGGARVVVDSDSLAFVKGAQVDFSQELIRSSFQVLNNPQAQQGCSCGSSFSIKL

The other results are listed elsewhere or left out. Single values of this set are uncertain.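 Tm was set to 64 °C where no melting was found, and many curves are irregular.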

Compound in the test: CCc1cnccc1C(=O)Nc1cc2c(cc1F)NC(=O)CC2
Kind of test: melting temperature shift (DMSO Tm minus MBE1-treated Tm) in cellular thermal proteome profiling; higher = less thermal stabilization by MBE1 (negative = stabilized by MBE1). To be noted: A375.

On to LUZP1 (UniProt Q86V48), for which the melting temperature shift (MBE1 concentration: 100 nM) is -1.28 °C and the melting temperature shift (MBE1 concentration: 1 uM) is -0.944 °C.
The like results for UniProt Q7Z3E5 were, in that order, -0.89 °C and 0.122 °C.
For UniProt Q6ZVK8, the melting temperature shift (MBE1 concentration: 100 nM) was 0.892 °C and the melting temperature shift (MBE1 concentration: 1 uM) is 1.66 °C.
The like results for Q6ZMK1 (UniProt P0DTL5) were, in that order, -1.47 °C and 0.369 °C.
On to DHDDS (UniProt Q86SQ9), for which the melting temperature shift by setting is: (MBE1 concentration: 100 nM) -2.21 °C; (MBE1 concentration: 1 uM) -0.0939 °C.
On the same counts, the results for UniProt Q86US8 are -1.18 °C and -0.0753 °C.
Turning to UniProt Q86TN4, the melting temperature shift by setting is: (MBE1 concentration: 100 nM) 1.8 °C; (MBE1 concentration: 1 uM) 0.813 °C.
The like results for USP34 (UniProt Q70CQ2) were, in that order, -0.677 °C and -0.447 °C.
On the same counts, the results for DHX32 (UniProt Q7L7V1) are -1.37 °C and -0.609 °C.
The like results for NUFIP2 (UniProt Q7Z417) were, in that order, -1.5 °C and -0.9 °C.
Take CTU1 (UniProt Q7Z7A3): the melting temperature shift was found to be 0.926 °C (MBE1 concentration: 100 nM) and 1.55 °C (MBE1 concentration: 1 uM).
On the same counts, the results for RABEPK (UniProt Q7Z6M1) are 1.61 °C and 0.0591 °C.
With ZNF598 (UniProt Q86UK7), the melting temperature shift is, setting by setting: (MBE1 concentration: 100 nM) -0.875 °C; (MBE1 concentration: 1 uM) -0.565 °C.
The like results for TRAF7 (UniProt Q6Q0C0) were, in that order, 0.641 °C and 0.299 °C.
The like results for UniProt Q71F56 were, in that order, 0.287 °C and -0.647 °C.
On the same counts, the results for SYDE1 (UniProt Q6ZW31) are -1.09 °C and -0.975 °C.
With UniProt Q7Z7L1, the melting temperature shift is -0.508 °C (MBE1 concentration: 100 nM) and -0.0988 °C (MBE1 concentration: 1 uM).
On the same counts, the results for POGZ (UniProt Q7Z3K3) are -0.694 °C and -0.355 °C.
On the same counts, the results for KIF21A (UniProt Q7Z4S6) are 0.525 °C and 0 °C.
The like results for UniProt Q86V87 were, in that order, -2.8 °C and -2.99 °C.
For UniProt Q6RI45, the melting temperature shift reads like this: (MBE1 concentration: 100 nM) -5.02 °C; (MBE1 concentration: 1 uM) 0.812 °C.
Consider UniProt Q6PJW8, for which the melting temperature shift reads like this: (MBE1 concentration: 100 nM) 1 °C; (MBE1 concentration: 1 uM) 2.31 °C.
On the same counts, the results for UniProt Q76I76 are 1.5 °C and -0.0916 °C.
For UniProt Q6ZMZ3, the melting temperature shift is, setting by setting: (MBE1 concentration: 100 nM) -1.72 °C; (MBE1 concentration: 1 uM) -1.34 °C.
The like results for NFXL1 (UniProt Q6ZNB6) were, in that order, -0.427 °C and -0.934 °C.
On the same counts, the results for UniProt Q6ZSR9 are 0.452 °C and 0.36 °C.
The like results for DHX29 (UniProt Q7Z478) were, in that order, 0.421 °C and 0.769 °C.
UniProt Q7Z7A1: the melting temperature shift runs as follows: (MBE1 concentration: 100 nM) -2.54 °C; (MBE1 concentration: 1 uM) -0.215 °C.
The like results for UniProt Q6PL18 were, in that order, 0.358 °C and -0.458 °C.
On the same counts, the results for BZW1 (UniProt Q7L1Q6) are -0.546 °C and 0.00941 °C.
For SH3RF1 (UniProt Q7Z6J0), the melting temperature shift was -1.51 °C (MBE1 concentration: 100 nM) and -2.08 °C (MBE1 concentration: 1 uM).
As to UniProt Q6ZT62, the melting temperature shift is -0.366 °C (MBE1 concentration: 100 nM) and 0.159 °C (MBE1 concentration: 1 uM).
On the same counts, the results for PGM2L1 (UniProt Q6PCE3) are -0.436 °C and 0.0604 °C.
The like results for PATL1 (UniProt Q86TB9) were, in that order, -0.24 °C and 0.127 °C.
The like results for PAXIP1 (UniProt Q6ZW49) were, in that order, 1.37 °C and 3.47 °C.
As to OGFOD3 (UniProt Q6PK18), the melting temperature shift is, setting by setting: (MBE1 concentration: 100 nM) -1 °C; (MBE1 concentration: 1 uM) 0.689 °C.
The like results for ELMSAN1 (UniProt Q6PJG2) were, in that order, -0.154 °C and -0.391 °C.
On the same counts, the results for APTX (UniProt Q7Z2E3) are -1.81 °C and 0.0706 °C.
On the same counts, the results for UniProt Q7Z7C8 are -0.972 °C and 0.232 °C.
GIGYF2 (UniProt Q6Y7W6): the melting temperature shift (MBE1 concentration: 100 nM) was -0.96 °C and the melting temperature shift (MBE1 concentration: 1 uM) was -0.414 °C.
Consider ARHGEF18 (UniProt Q6ZSZ5), for which the melting temperature shift is -0.593 °C (MBE1 concentration: 100 nM) and -0.941 °C (MBE1 concentration: 1 uM).
On the same counts, the results for IQGAP3 (UniProt Q86VI3) are -0.732 °C and -0.359 °C.
The like results for PRPF39 (UniProt Q86UA1) were, in that order, -0.404 °C and -0.0513 °C.
Regarding IRF2BP2 (UniProt Q7Z5L9), the melting temperature shift by setting is: (MBE1 concentration: 100 nM) -2.03 °C; (MBE1 concentration: 1 uM) -0.961 °C.
For the target UniProt Q7L2Z9, the melting temperature shift (MBE1 concentration: 100 nM) came to 0.611 °C and the melting temperature shift (MBE1 concentration: 1 uM) turned out to be 2.2 °C.
The like results for NOP9 (UniProt Q86U38) were, in that order, -0.135 °C and 0.0705 °C.
The like results for ZBTB33 (UniProt Q86T24) were, in that order, -1.28 °C and -1.45 °C.
The like results for NBEAL2 (UniProt Q6ZNJ1) were, in that order, -0.78 °C and -0.441 °C.
Take PDXDC1 (UniProt Q6P996): the melting temperature shift was -0.908 °C (MBE1 concentration: 100 nM) and -0.41 °C (MBE1 concentration: 1 uM).
The like results for GDPGP1 (UniProt Q6ZNW5) were, in that order, -0.128 °C and 0.00611 °C.
Consider UniProt Q86UD0, for which the melting temperature shift reads like this: (MBE1 concentration: 100 nM) -1.1 °C; (MBE1 concentration: 1 uM) -1.03 °C.
On the same counts, the results for CCDC174 (UniProt Q6PII3) are -2.83 °C and -3.29 °C.
The like results for STXBP4 (UniProt Q6ZWJ1) were, in that order, -0.819 °C and -1.44 °C.
The like results for UniProt Q7Z7M9 were, in that order, -0.307 °C and 0.488 °C.
Take AACS (UniProt Q86V21): the melting temperature shift is -0.256 °C (MBE1 concentration: 100 nM) and -0.288 °C (MBE1 concentration: 1 uM).
On the same counts, the results for COX15 (UniProt Q7KZN9) are -0.402 °C and -0.0532 °C.
Regarding FRA10AC1 (UniProt Q70Z53), the melting temperature shift by setting is: (MBE1 concentration: 100 nM) -1.08 °C; (MBE1 concentration: 1 uM) -0.429 °C.
For UniProt Q6ZN55, the melting temperature shift is 0.801 °C (MBE1 concentration: 100 nM) and -0.692 °C (MBE1 concentration: 1 uM).
On the same counts, the results for UniProt Q86U28 are -1.11 °C and 0.696 °C.
In the case of BCL9L (UniProt Q86UU0), the melting temperature shift runs as follows: (MBE1 concentration: 100 nM) -0.893 °C; (MBE1 concentration: 1 uM) -0.228 °C.
